PubChem BioAssay AID652259 | Drosophila RNAi Screening Center – 2013
The deposit covers about 22,000 reagents; this is a random part of those with a known target gene and a result. In the full data, 233 (1.1%) got an active call. 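Light values are raw, unnormalised plate reads; the ratio scores behind the reporter calls were not deposited.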 A number with no mark means an inactive call. A plus sign joins genes that one reagent is predicted to hit. Not stated in the record: the amount of reagent, the time to read-out, the dose of the treatment.

Screen: 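Genome-wide hunt for genes that control Wingless pathway activity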 (primary screen)
Cell system: Drosophila clone 8 imaginal disc epithelial cells
Reagents: long dsRNA against Drosophila genes
Challenge: pathway stimulated by co-transfected Wingless expression plasmid
Measured: 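Firefly luciferase from a tcf-site Wingless reporter, measured alongside co-transfected Renilla luciferase that tracks transfection; pathway stimulated by a Wingless plasmid; the firefly-to-Renilla ratio is not deposited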
Direction: firefly reporter light: higher = more Wg reporter light, before normalisation; Renilla control light: higher = more transfected or surviving cells
Rule for the call: 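Strong candidates differ from their plate mean by at least two out of four per-plate statistical tests; weak candidates meet just one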
Calls: active = candidate regulator (raises or lowers reporter); inactive = not a candidate

Target gene,amplicon,"reporter change call, replicate 1","firefly reporter light, replicate 1","firefly reporter light, replicate 2","Renilla control light, replicate 1","Renilla control light, replicate 2"
tgy (GeneID 32896),DRSC20045,,12501,,7702,
Ubr1 (GeneID 32687),DRSC20148,,2801,3078,1155,1714
CG31128 (GeneID 318601),DRSC13675,,4656,,1973,
CG12828 (GeneID 5740660),DRSC06177,,2836,6109,652,2123
Cyp4d1 (GeneID 31188),DRSC17694,,3896,,1540,
Cyp4d1 (GeneID 31188),DRSC18456,,14979,,16251,
CG42326 (GeneID 35838),DRSC06483,,2985,9613,1068,3483
CG42326 (GeneID 35838),DRSC06484,,2802,6518,865,2507
Tsp29Fa (GeneID 34211),DRSC03232,,2304,5856,855,2912
CG5157 (GeneID 39771),DRSC10488,,6886,,2749,
RabGGTa (GeneID 40617),DRSC12189,,7843,,1877,
CG15169 (GeneID 35161),DRSC02470,,2966,5175,504,2277
CG10413 (GeneID 35111),DRSC02052,,15618,,5639,
gro (GeneID 43162),DRSC16962,,1652,5019,987,2277
CG15212 (GeneID 50315),DRSC10212,,1386,11705,987,3573
CG1368 (GeneID 32361),DRSC19537,,3350,7522,1052,2723
RpS3 (GeneID 42761),DRSC16838,,14130,,12304,
CG46339 (GeneID 44359),DRSC14136,,1709,7521,792,2245
PHDP (GeneID 37788),DRSC04635,,3273,6905,1066,3033
CG31183 (GeneID 41927),DRSC14403,,15753,,2597,
CG31183 (GeneID 41927),DRSC15554,,2772,7308,1408,1364
mil (GeneID 43343),DRSC15696,,9859,,3493,
CG13038 (GeneID 50268),DRSC09919,,10646,,4995,
Gr22d (GeneID 14462661),DRSC21653,,7.32e5,6.57e5,3.75e5,3.14e5
Ir7e (GeneID 7354417),DRSC18011,,3444,,1149,
ems (GeneID 41697),DRSC16941,,20576,,4712,
Tsp86D (GeneID 41310),DRSC15607,,17321,,4677,
eIF3j (GeneID 36037),DRSC06107,,8418,,2005,
PrBP (GeneID 34196),DRSC03189,,1830,4489,1081,2866
Trf5 (GeneID 33454),DRSC00412,,2714,5714,1325,3288
Fgop2 (GeneID 33971),DRSC02016,,10049,,3592,
CG31872 (GeneID 34458),DRSC02568,,2496,7170,976,2277
CG31872 (GeneID 34458),DRSC02572,,4976,9336,1527,3244
CG5645 (GeneID 39382),DRSC10532,,5622,,1984,
Aasdh (GeneID 34175),DRSC03467,,2545,5884,828,2587
MFS1 (GeneID 246519),DRSC04115,,2476,6138,727,1862
CG9631 (GeneID 41729),DRSC14137,,4549,,1531,
jub (GeneID 32351),DRSC19367,,1162,3732,645,1875
Cht10 (GeneID 3355116),DRSC03766,,3424,5290,981,2384
Cht10 (GeneID 3355116),DRSC03767,,8816,,2549,
Cht10 (GeneID 3355116),DRSC03768,,2624,6315,866,2932
GlcAT-P (GeneID 39262),DRSC10603,,5654,,2874,
GlcAT-P (GeneID 39262),DRSC10604,,6016,,1716,
Dhc98D (GeneID 43379),DRSC16645,,9056,,2924,
CG12531 (GeneID 32986),DRSC19466,,12459,,9401,
Jhbp7 (GeneID 43035),DRSC14408,,23882,,16488,
vir-1 (GeneID 34652),DRSC02501,,1985,6960,905,2368
vir-1 (GeneID 34652),DRSC02863,,1539,4150,662,2072
Prosalpha6 (GeneID 34359),DRSC03401,,1068,3008,325,1062
Fum2 (GeneID 31606),DRSC18345,,17360,,10461,

The list goes on (6 carried over from the part before).
Target gene,amplicon,"reporter change call, replicate 1","firefly reporter light, replicate 1","firefly reporter light, replicate 2","Renilla control light, replicate 1","Renilla control light, replicate 2"
CG12531 (GeneID 32986),DRSC19466,,12459,,9401,
Jhbp7 (GeneID 43035),DRSC14408,,23882,,16488,
vir-1 (GeneID 34652),DRSC02501,,1985,6960,905,2368
vir-1 (GeneID 34652),DRSC02863,,1539,4150,662,2072
Prosalpha6 (GeneID 34359),DRSC03401,,1068,3008,325,1062
Fum2 (GeneID 31606),DRSC18345,,17360,,10461,
Sod2 (GeneID 36878),DRSC07554,,17702,,4251,
Eip93F (GeneID 44936),DRSC13527,,3561,,1576,
Eip93F (GeneID 44936),DRSC16661,,34775,,6289,
Eip93F (GeneID 44936),DRSC21754,,7.37e5,7.56e5,5.07e5,3.77e5
ND-19 (GeneID 37946),DRSC04404,,3515,9912,1240,2696
CG31546 (GeneID 40691),DRSC12317,,8027,,2323,
Uhg2 + snoRNA:Me18S-G1620 + snoRNA:U14:30Ea,DRSC01100,,13888,,9824,
nrv2 (GeneID 33953),DRSC00948,,16178,,6832,
nrv2 (GeneID 33953),DRSC03383,,11325,,4277,
CG3581 (GeneID 42315),DRSC15499,,9651,,1972,
side-IV + asRNA:CR17025,DRSC14833,,17923,,3552,
side-IV + asRNA:CR17025,DRSC15168,,16492,,4245,
CG31827 + CG18478,DRSC01958,,3514,6205,1093,2643
CG8664 (GeneID 32719),DRSC20116,,18692,,8738,
CG34169 (GeneID 5740400),DRSC01579,,22546,,10000,
Jhbp2 (GeneID 40612),DRSC12292,,19624,,6181,
tud (GeneID 37417),DRSC04719,,1735,7266,541,2779
CG13069 (GeneID 50271),DRSC09952,,8024,,4492,
CG7457 (GeneID 38865),DRSC10849,,1146,7884,1010,3768
CG33096 (GeneID 326251),DRSC14440,,3324,6154,1488,2109
CG7786 (GeneID 36802),DRSC07045,,9908,,3632,
Sarm (GeneID 38895),DRSC08906,,3899,,397,
Sarm (GeneID 38895),DRSC08907,Wg reporter activity lowered,3056,,523,
Sarm (GeneID 38895),DRSC10038,,1912,7747,1591,2995
Sarm (GeneID 38895),DRSC10039,,1131,5592,907,2380
Sarm (GeneID 38895),DRSC10927,,953,7216,932,2652
Sarm (GeneID 38895),DRSC10929,,4008,,2256,
